The results in this text go back to doi:10.1101/2023.01.05.522749.

Protein sequences, listed by entry. Tags and fused reporters are not part of them.
UniProt Q94AH6: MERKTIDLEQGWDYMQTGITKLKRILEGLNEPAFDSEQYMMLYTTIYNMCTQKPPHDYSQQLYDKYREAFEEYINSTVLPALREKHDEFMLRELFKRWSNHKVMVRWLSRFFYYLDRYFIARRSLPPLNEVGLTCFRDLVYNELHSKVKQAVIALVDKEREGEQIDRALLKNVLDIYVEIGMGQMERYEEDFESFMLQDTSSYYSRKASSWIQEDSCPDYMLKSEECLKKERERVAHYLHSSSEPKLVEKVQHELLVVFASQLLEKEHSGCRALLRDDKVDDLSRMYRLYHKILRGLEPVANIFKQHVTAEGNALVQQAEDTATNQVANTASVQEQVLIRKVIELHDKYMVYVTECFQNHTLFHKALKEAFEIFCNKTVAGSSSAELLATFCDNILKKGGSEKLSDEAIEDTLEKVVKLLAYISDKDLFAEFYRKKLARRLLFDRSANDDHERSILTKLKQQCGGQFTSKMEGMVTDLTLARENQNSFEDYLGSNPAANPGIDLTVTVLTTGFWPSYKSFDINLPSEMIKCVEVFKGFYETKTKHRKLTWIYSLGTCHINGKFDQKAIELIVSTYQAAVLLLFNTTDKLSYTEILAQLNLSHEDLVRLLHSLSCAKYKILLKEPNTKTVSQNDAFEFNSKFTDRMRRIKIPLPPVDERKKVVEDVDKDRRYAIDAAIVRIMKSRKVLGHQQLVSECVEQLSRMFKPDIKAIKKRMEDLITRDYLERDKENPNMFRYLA

No constants are given. Whether binding was seen depends on the method and setting. Some binding calls cover weakened binding; strength is not graded here. Where a sequence is shown, tags or fusion partners need not be part of it.

The target of this assay is T1, TRANSPORT INHIBITOR RESPONSE 1 (TIR1), Gal4 DNA-binding domain fusion for yeast two-hybrid (Arabidopsis thaliana) (UniProt Q570C0).
T1 sequence: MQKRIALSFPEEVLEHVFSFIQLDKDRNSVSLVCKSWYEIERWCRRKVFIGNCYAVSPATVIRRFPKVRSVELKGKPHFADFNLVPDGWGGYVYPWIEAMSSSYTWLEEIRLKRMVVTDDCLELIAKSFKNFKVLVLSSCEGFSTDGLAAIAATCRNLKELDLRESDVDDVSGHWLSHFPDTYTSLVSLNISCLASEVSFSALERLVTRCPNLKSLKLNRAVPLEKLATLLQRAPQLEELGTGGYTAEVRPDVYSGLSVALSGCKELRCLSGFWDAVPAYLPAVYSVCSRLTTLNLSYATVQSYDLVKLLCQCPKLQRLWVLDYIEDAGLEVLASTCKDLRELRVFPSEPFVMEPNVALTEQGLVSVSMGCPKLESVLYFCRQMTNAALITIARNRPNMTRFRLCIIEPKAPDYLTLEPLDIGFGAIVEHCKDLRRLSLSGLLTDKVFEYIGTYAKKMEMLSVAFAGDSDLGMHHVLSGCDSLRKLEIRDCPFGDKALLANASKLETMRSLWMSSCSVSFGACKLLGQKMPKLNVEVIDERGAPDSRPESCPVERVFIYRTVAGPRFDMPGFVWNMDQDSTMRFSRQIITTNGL
In words: two-hybrid.

Take “Cullin1 (CUL1), Gal4 activation domain fusion for yeast two-hybrid (from UniProt Q94AH6 1-738)”: the binding result is given as “binds”.
